No constants are given. Whether binding was seen depends on the method and setting. Binding seen in cells or lysates may run through a third protein. A yes stands for co-enrichment or nearness to the bait. Other partners may have been found.
Target: FLAG-HA-USP35 (UniProt Q9P2H5)
Assay: affinity purification with mass spectrometry; Tandem Affinity Purification (TAP): lysate of C4-2b cells with FLAG-HA-USP35, treated with 10 μM MG132 for 4 h, immunoprecipitated with anti-FLAG and anti-HA beads; silver staining; peptides in the complex identified

The chains behind the UniProt entries cited, without tags or fusion partners.
UniProt Q9P2H5: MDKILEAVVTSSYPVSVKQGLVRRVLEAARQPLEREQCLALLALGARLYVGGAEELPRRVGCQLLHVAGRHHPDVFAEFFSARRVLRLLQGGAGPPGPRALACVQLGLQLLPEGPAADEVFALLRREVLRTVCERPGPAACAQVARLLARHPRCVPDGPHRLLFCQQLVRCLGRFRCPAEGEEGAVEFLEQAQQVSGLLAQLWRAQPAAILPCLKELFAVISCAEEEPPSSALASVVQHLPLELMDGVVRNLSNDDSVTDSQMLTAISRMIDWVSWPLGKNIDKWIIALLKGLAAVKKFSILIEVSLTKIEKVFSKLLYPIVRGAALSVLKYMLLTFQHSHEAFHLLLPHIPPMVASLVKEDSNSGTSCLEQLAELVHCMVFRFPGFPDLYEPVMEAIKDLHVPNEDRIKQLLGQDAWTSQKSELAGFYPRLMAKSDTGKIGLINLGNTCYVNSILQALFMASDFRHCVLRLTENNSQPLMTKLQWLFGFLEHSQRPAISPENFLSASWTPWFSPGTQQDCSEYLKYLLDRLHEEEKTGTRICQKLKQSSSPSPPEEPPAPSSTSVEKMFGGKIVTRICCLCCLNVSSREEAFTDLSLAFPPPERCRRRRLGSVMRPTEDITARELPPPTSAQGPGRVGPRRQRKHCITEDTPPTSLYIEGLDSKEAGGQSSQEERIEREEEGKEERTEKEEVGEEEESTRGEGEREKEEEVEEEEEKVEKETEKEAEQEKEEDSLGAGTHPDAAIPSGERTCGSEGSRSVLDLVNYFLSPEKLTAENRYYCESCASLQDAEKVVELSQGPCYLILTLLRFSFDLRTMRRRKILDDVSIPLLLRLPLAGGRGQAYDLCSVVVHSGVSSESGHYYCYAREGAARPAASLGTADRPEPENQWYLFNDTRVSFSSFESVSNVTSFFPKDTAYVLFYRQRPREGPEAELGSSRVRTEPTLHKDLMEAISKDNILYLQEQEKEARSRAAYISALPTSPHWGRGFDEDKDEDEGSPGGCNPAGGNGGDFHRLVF
UniProt Q9UM11: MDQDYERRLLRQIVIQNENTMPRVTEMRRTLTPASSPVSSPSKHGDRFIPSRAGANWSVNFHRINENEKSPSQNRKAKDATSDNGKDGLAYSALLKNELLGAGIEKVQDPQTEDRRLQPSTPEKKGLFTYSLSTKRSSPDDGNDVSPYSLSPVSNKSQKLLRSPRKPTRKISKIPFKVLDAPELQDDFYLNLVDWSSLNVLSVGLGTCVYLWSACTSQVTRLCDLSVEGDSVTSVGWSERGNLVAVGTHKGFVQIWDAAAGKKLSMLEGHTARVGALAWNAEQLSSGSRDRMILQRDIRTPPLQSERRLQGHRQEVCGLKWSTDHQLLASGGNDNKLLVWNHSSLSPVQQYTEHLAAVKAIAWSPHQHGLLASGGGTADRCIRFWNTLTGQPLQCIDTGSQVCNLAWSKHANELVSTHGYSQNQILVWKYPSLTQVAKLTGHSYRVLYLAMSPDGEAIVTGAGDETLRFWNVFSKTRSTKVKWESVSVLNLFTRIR
UniProt Q7Z434: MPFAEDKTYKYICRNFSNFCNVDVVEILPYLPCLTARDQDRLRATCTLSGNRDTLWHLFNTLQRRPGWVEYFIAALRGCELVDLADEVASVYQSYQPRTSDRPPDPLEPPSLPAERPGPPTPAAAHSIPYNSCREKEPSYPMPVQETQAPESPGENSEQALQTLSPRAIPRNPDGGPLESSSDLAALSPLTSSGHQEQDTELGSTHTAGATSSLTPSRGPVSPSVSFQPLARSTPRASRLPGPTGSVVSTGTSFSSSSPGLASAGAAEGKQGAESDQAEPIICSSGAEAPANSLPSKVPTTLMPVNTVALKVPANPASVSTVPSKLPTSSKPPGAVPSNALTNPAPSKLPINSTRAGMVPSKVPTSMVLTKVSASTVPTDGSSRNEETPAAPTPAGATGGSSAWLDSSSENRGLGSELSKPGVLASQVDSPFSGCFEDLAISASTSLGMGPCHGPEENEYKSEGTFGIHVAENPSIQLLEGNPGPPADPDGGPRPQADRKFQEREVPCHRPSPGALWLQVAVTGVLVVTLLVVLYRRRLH
UniProt P55201: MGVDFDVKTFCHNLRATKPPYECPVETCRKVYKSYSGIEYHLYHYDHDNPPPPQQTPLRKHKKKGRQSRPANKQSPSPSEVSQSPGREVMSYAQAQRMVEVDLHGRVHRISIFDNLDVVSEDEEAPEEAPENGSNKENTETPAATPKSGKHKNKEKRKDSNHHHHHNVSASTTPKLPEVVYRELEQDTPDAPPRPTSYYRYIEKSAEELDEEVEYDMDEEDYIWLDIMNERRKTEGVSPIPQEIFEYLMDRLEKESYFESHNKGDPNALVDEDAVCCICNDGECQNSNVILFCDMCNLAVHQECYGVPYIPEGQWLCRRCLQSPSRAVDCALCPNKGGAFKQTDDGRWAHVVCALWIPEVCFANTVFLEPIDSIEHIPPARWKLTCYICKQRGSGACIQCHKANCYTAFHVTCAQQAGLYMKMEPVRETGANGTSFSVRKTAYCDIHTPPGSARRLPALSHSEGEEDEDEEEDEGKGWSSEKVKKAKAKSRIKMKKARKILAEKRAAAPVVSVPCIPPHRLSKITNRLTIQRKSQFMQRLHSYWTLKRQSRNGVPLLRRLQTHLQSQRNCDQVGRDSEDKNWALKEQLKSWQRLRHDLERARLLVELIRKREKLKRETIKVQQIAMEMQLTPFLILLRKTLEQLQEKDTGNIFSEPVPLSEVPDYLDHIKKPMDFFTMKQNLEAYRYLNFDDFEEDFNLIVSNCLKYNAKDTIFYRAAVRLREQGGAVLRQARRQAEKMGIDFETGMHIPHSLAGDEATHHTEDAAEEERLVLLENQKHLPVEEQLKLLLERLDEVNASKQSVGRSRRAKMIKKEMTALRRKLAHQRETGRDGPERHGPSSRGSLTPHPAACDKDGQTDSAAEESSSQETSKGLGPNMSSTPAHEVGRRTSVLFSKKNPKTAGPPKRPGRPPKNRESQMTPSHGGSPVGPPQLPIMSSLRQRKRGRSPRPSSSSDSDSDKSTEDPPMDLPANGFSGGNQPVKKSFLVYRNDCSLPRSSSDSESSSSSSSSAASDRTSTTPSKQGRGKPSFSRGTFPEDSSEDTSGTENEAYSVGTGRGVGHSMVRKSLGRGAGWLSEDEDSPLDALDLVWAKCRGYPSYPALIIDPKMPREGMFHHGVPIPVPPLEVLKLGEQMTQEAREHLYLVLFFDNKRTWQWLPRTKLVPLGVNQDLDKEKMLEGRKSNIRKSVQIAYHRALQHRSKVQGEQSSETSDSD

| Molecule | binding |
| --- | --- |
| FZR1 (from UniProt Q9UM11 1-496) | binds |
| MAVS (from UniProt Q7Z434 1-540) | binds |

Further lines, results first:

| binding | Molecule |
| --- | --- |
| binds | BRPF1 (from UniProt P55201 1-1214) |
| binds | TNIP2 (protein, UniProt Q8NFZ5 1-429) MSRDPGSGGWEEAPRAAAALCTLYHEAGQRLRRLQDQLAARDALIARLRARLAALEGDAAPSLVDALLEQVARFREQLRRQEGGAAEAQMRQEIERLTERLEEKEREMQQLLSQPQHEREKEVVLLRRSMAEGERARAASDVLCRSLANETHQLRRTLTATAHMCQHLAKCLDERQHAQRNVGERSPDQSEHTDGHTSVQSVIEKLQEENRLLKQKVTHVEDLNAKWQRYNASRDEYVRGLHAQLRGLQIPHEPELMRKEISRLNRQLEEKINDCAEVKQELAASRTARDAALERVQMLEQQILAYKDDFMSERADRERAQSRIQELEEKVASLLHQVSWRQDSREPDAGRIHAGSKTAKYLAADALELMVPGGWRPGTGSQQPEPPAEGGHPGAAQRGQGDLQCPHCLQCFSDEQGEELLRHVAECCQ |

From PMC9649703
